Results taken from US7056908B2, “Pharmaceutical compositions and methods for preventing skin tumor formation and causing regression of existing tumors” (priority 1991, dated 2006).

Tests used:
[1] = test system: grafted SP-1 mouse papilloma cells; assay: Tumor formation from grafted SP-1 papilloma cells on nude mice, topical treatment; type: in vivo
[2] = test system: grafted 308 mouse papilloma cells; assay: Tumor formation from grafted 308 papilloma cells on nude mice, topical treatment; type: in vivo; details: Example 4; topical twice per week in acetone from two weeks after grafting
primary keratinocytes = type: cell-based, mouse
Description: EGF binding was assessed in 6-well tissue culture dishes plated at a cell density of 2.5×10^6 cells/well (Strickland, J. E. et al, “Interaction of epidermal growth factor with basal and differentiating epidermal cells of mice resistant and sensitive to carcinogenesis,” Carcinogenesis, 5: 735–740, 1984). […] A second set of cultures received, in addition, 1 μg/ml unlabelled EGF to assess non-specific binding of radioactive ligand. Following the incubation period, cultures were washed 4 times with ice-cold binding buffer, harvested in 1.5 ml lysis buffer (0.1 M tris (pH 7.4), 0.5% SDS, 1 mM EDTA), and radioactivity determined by scintillation counting.
Exposure of a variety of cultured cell types to TPA results in inhibition of EGF binding which is attributed to PKC-mediated phosphorylation of the EGF receptor (Diamond, L., “Tumor promoters and cell transformation,” In: D. Grunberger and S. P. Goff. (eds.), Mechanisms of Cellular Transformation by Carcinogenic Agents, pp. 73–133, New York: Pergamon Press. 1987).
Each point is the mean of trilpicate dishes±standard error of the mean.

**Q.** `CN[C@@H]1C[C@H]2O[C@@](C)([C@@H]1OC)n1c3ccccc3c3c4c(c5c6ccccc6n2c5c31)C(=O)NC4` [staurosporine] was tested. Which “inhibition of tumor size” value ([1]; Example 1, 2.5 nmole in 25 μl acetone once a week from two weeks after grafting) did it give?
**A.** The value was “clear as early as four weeks after grafting”.

**Q.** What about the “optimum dose for inhibition of tumor formation” value (“optimum dose for inhibition” for short) ([1]; Example 2, topical twice per week from two weeks after grafting, lowest dose tested) of the same compound?
**A.** The value was 0.125 nmol.

**Q.** And the “optimum dose for inhibition” value ([1]; Example 3, topical twice per week in acetone from two weeks after grafting)?
**A.** The value was 0.025 nmol.

**Q.** What about the most inhibitory dose ([1]; Example 5, single topical treatment two weeks after grafting) of the same compound?
**A.** Its most inhibitory dose is 0.125 nmol.

**Q.** What about the “optimum dose for inhibition” value [2] of the same compound?
**A.** The value was 0.025 nmol.

**Q.** And the “inhibition of 125I-EGF binding” value (primary keratinocytes)?
**A.** Its value is “lack of response”.
